Some of the results follow. Shown are side measurements of this screen, not its main read-out; they come without a call. Most of these compounds were active or inconclusive in the main read-out, so they are no random draw.
Test: reducers of endogenous Her2 protein level, primary screen, SKBR3 breast tumor cells, AlphaScreen, ATP viability (AID 461);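 further: percent of carrier control wells set as 100% viability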
Conditions: 18-24 h, measured here: SKBR3 viability, ATP luminescence, at 10 µM

Row | Structure (SMILES) | viability [%]
1 | Cc1cccc(N2CCN(C(=O)C3CCCN(S(=O)(=O)c4c(C)noc4C)C3)CC2)c1C (configuration not stated) | 78
2 | Cc1ccccc1-n1nnc2c(=O)oc3ccccc3c21 | 99.5
3 | CCOc1ccc(-c2nc(C#N)c(NCc3ccc4c(c3)OCO4)o2)cc1 | 68
4 | Cn1nc(-c2ccc(N3CCCCC3)c(NC(=O)c3ccco3)c2)c2ccccc2c1=O | 107
5 | O=C(CN1CCN(c2nc(-c3ccc(F)cc3)cs2)CC1)NCc1ccc2c(c1)OCO2 | 175
6 | Cn1c(=O)c2c(nc(CN3CCc4ccccc4C3)n2Cc2cccc(Cl)c2)n(C)c1=O | 95
7 | O=c1[nH]c2ccccc2n1CCCN1CCN(C(c2ccccc2)c2ccccc2)CC1 | 62
8 | Cc1cc(C)n2c(SCC(=O)Nc3cc(C)on3)nnc2n1 | 91.5
9 | Cc1ccccc1Nc1cc2ccccc2c(=O)[nH]1 | 95.5
10 | CC1=C(C(=O)OC2CCCCCC2)C(c2ccc(C)o2)C2=C(CCCC2=O)N1 (configuration not stated) | 124
11 | c1ccc(-c2ccc(-c3ccccn3)nn2)nc1 | 112
12 | Cc1ccc(N2C(=O)c3oc4ccccc4c(=O)c3C2c2cccc(O)c2)nc1 (configuration not stated) | 102
13 | O=C(Nc1cccc(NC(=O)c2ccco2)c1)c1ccc2c(c1)OCO2 | 106
14 | N#Cc1c(N2CCCC2)nc(N)c2c(N)nc(N3CCCC3)cc12 | 82
15 | Cc1ccc(O)c(-c2cc(C(=O)Nc3ccc(S(=O)(=O)N4CC(C)OC(C)C4)cc3)[nH]n2)c1 (configuration not stated) | 92
16 | CSc1ccc2c(c1)N(CCC1CCCCN1C)c1ccccc1S2 (configuration not stated) | 49
17 | Clc1ccc2c(c1)[C@H]1OCC[C@H]1[C@@H](c1ccco1)N2 | 104
18 | COC(=O)C1=C(C)NC(C)=C(C(=O)OC)C1C(=O)OC1CCCCC1=O (configuration not stated) | 89
19 | CN1CC=C2C(C#N)=C(N)C(C#N)(C#N)C(c3cccc(Cl)c3Cl)C2C1 (configuration not stated) | 115

Row | Structure (SMILES) | viability [%]
20 | N#Cc1cc2ccc(N3CCOCC3)cc2cc1C#N | 85
21 | Cc1cc(NC(=O)c2ccccc2)ncc1NC(=O)c1ccco1 | 94
22 | O=C(CN1C(=O)c2cccc3cccc1c23)Nc1ccccc1C(=O)NCc1ccco1 | 89
23 | O=C(Nc1nc2c(s1)CCCC2)C1COc2ccccc2O1 (configuration not stated) | 103
24 | Cc1cccc(NC(=O)c2ccc3ccccc3n2)n1 | 91
25 | CCN1CCc2c(C#N)c(N3CCCCC3)nc(NCc3ccccc3)c2C1 | 103
26 | Cc1ccc(Cl)cc1N1CCN(C(=O)CN2C(=O)c3cccc4cccc2c34)CC1 | 94.5
27 | CC(=O)Nc1nc(C)c(-c2csc(Nc3ccc(O)cc3)n2)s1 | 114
28 | O=C(CNCCC1=CCCCC1)Nc1ccccc1N1CCCCC1 | 102
29 | COC(=O)CS(=O)(=O)c1nnc([C@H](Cc2ccccc2)NC(=O)OC(C)(C)C)o1 | 77.5
30 | COc1cc(NC(=O)c2ccco2)c(OC)cc1NC(=O)CCC(=O)Nc1cc(C)cc(C)c1 | 106
31 | CCCCOc1ccc(C2C3CN(C(=O)OCC)CC=C3C(C#N)=C(N)C2(C#N)C#N)cc1OC (configuration not stated) | 62
32 | Cc1cc(O)c(NC(=O)c2ccc(Br)o2)cc1C | 98
33 | CNCCCN1c2ccccc2CCc2ccccc21 | 61.5
34 | Cc1ccc(-c2nnc3c4ccccc4c(C)nn23)cc1S(=O)(=O)N1CCN(C)CC1 | 85
35 | CCN(CC)CCNC(=O)c1ccc(N2CCCCC2)c(NS(=O)(=O)c2ccc(C)cc2)c1 | 81
36 | O=C(Nc1ccc2nn(-c3ccccc3)nc2c1)c1ccc(Br)o1 | 67.5
37 | O=C(c1ccco1)N1CCN(CCCCN2C(=O)c3ccccc3C2=O)CC1 | 102

2 records drawn at random from the list so far:
Row | Structure (SMILES) | viability [%]
31 | CCCCOc1ccc(C2C3CN(C(=O)OCC)CC=C3C(C#N)=C(N)C2(C#N)C#N)cc1OC (configuration not stated) | 62
28 | O=C(CNCCC1=CCCCC1)Nc1ccccc1N1CCCCC1 | 102

From PubChem BioAssay
